Measured values: patent US20100021386A1
Results are given in words; binding and its absence hold for the method and conditions named. Some results given as binding are weak or reduced against the parent protein; the word gives no strength.

The chains behind the UniProt entries cited, without tags or fusion partners. Residues count along the entry.
UniProt P24062, residues 31-1370: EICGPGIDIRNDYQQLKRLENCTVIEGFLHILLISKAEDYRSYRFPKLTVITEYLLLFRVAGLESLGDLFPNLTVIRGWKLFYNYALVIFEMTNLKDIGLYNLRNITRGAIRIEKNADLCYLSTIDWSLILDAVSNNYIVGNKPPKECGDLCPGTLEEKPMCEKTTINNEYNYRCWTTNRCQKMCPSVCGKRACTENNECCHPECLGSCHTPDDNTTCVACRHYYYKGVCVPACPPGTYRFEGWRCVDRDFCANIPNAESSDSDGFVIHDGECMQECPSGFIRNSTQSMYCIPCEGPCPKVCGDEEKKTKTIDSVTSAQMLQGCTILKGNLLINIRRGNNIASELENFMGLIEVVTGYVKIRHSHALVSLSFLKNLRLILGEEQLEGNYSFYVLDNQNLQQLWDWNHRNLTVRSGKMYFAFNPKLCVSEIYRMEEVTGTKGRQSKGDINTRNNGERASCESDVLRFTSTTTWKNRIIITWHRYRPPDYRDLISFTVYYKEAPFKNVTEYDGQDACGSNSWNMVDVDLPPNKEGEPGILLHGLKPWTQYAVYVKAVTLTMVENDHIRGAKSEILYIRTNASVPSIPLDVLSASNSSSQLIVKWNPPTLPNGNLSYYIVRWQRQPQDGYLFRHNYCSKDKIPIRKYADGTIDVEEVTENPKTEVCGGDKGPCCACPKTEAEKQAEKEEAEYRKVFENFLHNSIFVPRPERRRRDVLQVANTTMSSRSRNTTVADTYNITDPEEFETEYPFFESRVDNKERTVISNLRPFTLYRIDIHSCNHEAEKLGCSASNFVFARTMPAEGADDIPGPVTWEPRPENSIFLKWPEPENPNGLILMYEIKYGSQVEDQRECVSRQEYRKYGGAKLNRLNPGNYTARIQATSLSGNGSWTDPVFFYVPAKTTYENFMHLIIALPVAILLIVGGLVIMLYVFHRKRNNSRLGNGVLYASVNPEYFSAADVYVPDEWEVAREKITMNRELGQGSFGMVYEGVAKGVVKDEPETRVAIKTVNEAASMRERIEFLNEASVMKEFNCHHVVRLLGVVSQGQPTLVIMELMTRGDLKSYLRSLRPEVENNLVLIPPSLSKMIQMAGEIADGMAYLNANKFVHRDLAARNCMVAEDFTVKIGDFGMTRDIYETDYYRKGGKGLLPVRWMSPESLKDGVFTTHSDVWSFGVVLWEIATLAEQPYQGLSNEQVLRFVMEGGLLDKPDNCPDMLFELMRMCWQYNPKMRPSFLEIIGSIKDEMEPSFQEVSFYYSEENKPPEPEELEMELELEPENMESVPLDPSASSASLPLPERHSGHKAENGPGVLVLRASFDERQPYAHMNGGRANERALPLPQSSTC
UniProt P05019, residues 49-118: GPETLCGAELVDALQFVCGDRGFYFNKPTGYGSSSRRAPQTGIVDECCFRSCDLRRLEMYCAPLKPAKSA

Target: IGF-I receptor (Long Evans rat liver) (rat) (UniProt P24062)
Experiment: competitive equilibrium binding of [125I] ligand to rat liver homogenate, PEG precipitation (Example 1)

binding: binds
Substance: Human recombinant [125I] IGF-I (from UniProt P05019 49-118) (ligand)
